Common to all, as to assay: co-IP; N2a cells co-transfected 24 h with Gαo-GFP constructs and His6-RGS19 (1:1) or mRFP-Gβ1/mRFP-Gγ3 (1:1:1); lysate in GST-lysis buffer (20 mM Tris-HCl pH 8.0, 1% Triton X-100, 10% glycerol in PBS); Gαo-GFP precipitated with GST-tagged GFP nanobody and glutathione Sepharose 4B overnight at 4 °C; Western blot against GFP, mRFP, His6; blots quantified, normalised to the precipitated Gαo, 5 experiments

Chains of the proteins cited; added tags and fusions are not shown. Lines headed by an entry give the natural chain unless they say otherwise; changes in a name come on top.
UniProt P09471: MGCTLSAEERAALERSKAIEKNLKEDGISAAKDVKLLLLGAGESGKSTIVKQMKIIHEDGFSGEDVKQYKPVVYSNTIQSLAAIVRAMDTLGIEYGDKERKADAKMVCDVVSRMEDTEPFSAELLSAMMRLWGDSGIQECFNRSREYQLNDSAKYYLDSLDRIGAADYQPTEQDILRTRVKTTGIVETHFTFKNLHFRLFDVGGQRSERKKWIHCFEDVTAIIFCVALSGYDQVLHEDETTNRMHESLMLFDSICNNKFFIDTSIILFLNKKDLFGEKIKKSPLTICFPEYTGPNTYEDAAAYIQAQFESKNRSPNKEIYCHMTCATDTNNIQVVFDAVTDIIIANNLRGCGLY

Experiment [1] concerns the target Gαo-GFP Q52P (human) (UniProt P09471).
The target in experiment [2] is Gαo-GFP Q52R (human) (UniProt P09471).
For experiment [3], the target named is Gαo-GFP wild-type (human) (UniProt P09471).

One molecule from publication PMC8535069 can be followed below.

These are yes or no findings as the source states them, for the method shown. Binding seen in cells or lysates may run through a third protein. Some entries that bind do so weakly or less than the wild type. Where a sequence is shown, tags or fusion partners need not be part of it.

B1: His6-RGS19 (protein, UniProt P49795 1-217)
chain: MPTPHEAEKQITGPEEADRPPSMSSHDTASPAAPSRNPCCLCWCCCCSCSWNQERRRAWQASRESKLQPLPSCEVCATPSPEEVQSWAQSFDKLMHSPAGRSVFRAFLRTEYSEENMLFWLACEELKAEANQHVVDEKARLIYEDYVSILSPKEVSLDSRVREGINKKMQEPSAHTFDDAQLQIYTLMHRDSYPRFLSSPTYRALLLQGPSQSSSEA
For the molecule B1, the binding entry in experiment [1] is given as “binds weakly”; in experiment [2] it was “binds weakly”; in experiment [3], “binds”.
